Laboratory results taken from PubChem BioAssay AID2685 (National Center for Advancing Translational Sciences (NCATS), 2010).
In all, about 320,000 compounds went through this assay and about 2,100 (0.66%) were called active. This list was built around the results that the source calls inconclusive (neither active nor inactive); the mix of calls is not that of the screen. Calls come from the whole dose curve; as a rule, active = well fitted inhibition curve with a large enough effect in the signal ratio, with a control signal flat (not every such curve was filed as active); inconclusive = small, poorly fitted or top-dose-only effect, or effect the other way, or a change in a side signal; inactive = flat fitted curve, though single readings scatter; the % refers to the signal ratio. Potencies of inconclusive entries are doubtful fits and often do not repeat.

assay: qHTS Assay for Lipid Storage Modulators in Drosophila S3 Cells; conditions: BODIPY lipid droplet fluorescence, 18-24 h, cells fed with added oleic acid; lipid storage change, negative = inhibition: at 46.1 µM (top of the series) unless noted
Outline: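 Drosophila S3 cells loaded with oleic acid (400 uM, as added) and compounds at several concentrations; lipid droplets imaged by 488-nm laser-scanning cytometry, 500–530 nm intensity and object ratio to cell channel. Percent activity normalized to 20 uM Triacsin C.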
% is set by controls: 0 for no effect and ±100 for the full control effect; potency is the fitted concentration of half-maximal effect.

Lipid storage change, negative = inhibition, inactive:
COc1ccc(-n2c(-c3cccc(C)c3[N+](=O)[O-])n[nH]c2=S)cc1, CC12CN(S(=O)(=O)c3ccccc3)CC(C)(CN(S(=O)(=O)c3ccccc3)C1)C2, Cc1nc(SCC(=O)c2ccc(Cl)cc2)c([N+](=O)[O-])[nH]1

Lipid storage change, negative = inhibition, inconclusive:
O=C(CSC1=Nc2ccccc2C2CC=NN12)Nc1ccc(F)c(F)c1F (stereo not given) 28.2%, O=C(COc1ccc2ccc(=O)oc2c1)N1CCN(c2ccc(F)cc2)CC1 -15.6%, CC(=O)NS(=O)(=O)c1ccc(N)cc1 -19.6%, O=C1CC(c2ccc(S(=O)(=O)NCc3ccccc3)cc2)CN1 (stereo not given) -8.31%, C=CCNC(=O)c1oc2ccc(S(=O)(=O)N3CCCCC3)cc2c1C 0.808%, Cc1ccc(OCC(=O)Nc2ccc(C)c(S(=O)(=O)N3CCCCCC3)c2)c([N+](=O)[O-])n1 9.9%, O=C1CC(c2ccccc2)n2nc(N3C(=O)CCC3=O)nc2N1 (stereo not given) 13.5%, COc1cccc(C(=O)Nc2ccc3c(c2)C(=O)N(CC2CCCO2)C3=O)c1 (stereo not given) -95.7%, O=C(Nc1nnc(-c2ccccc2)s1)c1ccccc1F -10.9%, COC(=O)c1ccc(C2C(C(C)=O)=C(O)C(=O)N2CCO)cc1 (stereo not given) 30.8%, CC(C(=O)NCc1ccccc1)N1C(=O)c2ccccc2C1=O (stereo not given) 43.1%, CCC(C)N1C(=O)C2C(C(=O)Nc3cccc(OC)c3)C3C=CC2(O3)C1C(=O)NC1CCCCC1C (stereo not given) -8.38%, CCOC(=O)c1cc(C(O)(C(F)(F)F)C(F)(F)F)c(/N=C/N(C)C)o1 25.6%, CCN(CC)C(=O)C(=O)c1cccn1-c1c(Cl)cccc1C#N 9.52%, C=CCON1C(=O)c2ccccc2C1=O -4.03%, CN1CCN(C(=O)CCc2nc(-c3ccc(Cl)cc3)no2)CC1 -32.3% [at 0.369 µM], CC(NC(=O)c1ccccc1)C(=O)N/N=C/c1ccc(O)cc1 (stereo not given) 2.86%, COc1ccc(C2CC(c3ccccc3)=NN2C(=O)COC(=O)C2CC2)cc1 (stereo not given) 6.84%, CCCC(=O)Nc1cc(OC)c(NC(=O)NC2CCCCC2)cc1OC 16.3%, COc1ccccc1-c1cc(C(=O)NCc2cccs2)no1 -6.85%, Cc1nnc(NN)n(N)c1=O -3.1%, CC(=O)c1cc(C(=O)c2ccccc2)sc1Nc1ccccc1 9.73%, COc1ccc(C2(O)CCN(Cc3nnnn3Cc3ccc(C)cc3)CC2)cc1 -24%, COc1ccc(OCC(=O)Nc2ccc(NC(=O)c3ccccc3Cl)c(OC)c2)cc1 -9.31%, O=C(NC(=O)c1ccccc1O)c1ccc2c(c1)CCO2 -20.8%, COc1ccc(C)cc1NC(=O)CSc1nnnn1C1CCCC1 -71.5%

Potency, active:
O=C(c1ccc(NS(=O)(=O)c2cccc([N+](=O)[O-])c2)cc1)N1CCN(C(=O)c2ccco2)CC1 9.2 µM, CCCCn1c(=O)[nH]c(=O)c2c1nc(-c1ccc(OC)c(Br)c1)n2CC(C)C 0.326 µM

Potency, inconclusive:
CC1(C)CC(NC(=O)COc2cc3oc(=O)c4c(c3cc2Cl)CCC4)CC(C)(C)N1 20.6 µM [activator, partial curve], CCOc1ncccc1C(=O)OCc1ccccc1 6.51 µM [falling, single point], CCOc1ccccc1C(=O)NCC(=O)O 2.59 µM [falling, full curve], Clc1ccc(-c2ccc(CNCc3ccccn3)o2)cc1 23.1 µM [activator, partial curve], COc1ccccc1-c1nnc2sc(-c3cnccn3)nn12 9.2 µM [activator, partial curve, poor fit], Cc1noc(C)c1CSc1nc2sc(C)c(C)c2c(=O)n1C1CCCC1 14.6 µM [activator, partial curve, poor fit], COc1ccc(Oc2ccc(N/C=C3\CCCC3=O)cc2)cc1 3.26 µM [activator, partial curve], Cc1c(C(=O)OCC(=O)NCCc2ccc(S(N)(=O)=O)cc2)oc2ccccc12 0.184 µM [falling, full curve], CN1CC(C(=O)Nc2ccc(F)c(Cl)c2)CC1=O (stereo not given) 29.1 µM [activator, single point]
